Assay [1] concerns the target EphA4 Ligand-Binding Domain (EphA4-LBD) (UniProt P54764). The experiment in a line: complex purified by gel filtration and crystallized. For orientation: Size exclusion chromatography separates by hydrodynamic size, large species first.
In assay [2] the target is human EphA4 extracellular region-SEAP-His protein (human) (UniProt P54764). The experiment in a line: ELISA.
Assay [3] has the same target. The experiment in a line: SPR. (In SPR one partner is held on a chip, and binding of the other changes the refractive index at the surface.)

By UniProt entry, the sequences of proteins in these tests, tags left out. Residues count along the entry.
UniProt P54764, residues 29-209: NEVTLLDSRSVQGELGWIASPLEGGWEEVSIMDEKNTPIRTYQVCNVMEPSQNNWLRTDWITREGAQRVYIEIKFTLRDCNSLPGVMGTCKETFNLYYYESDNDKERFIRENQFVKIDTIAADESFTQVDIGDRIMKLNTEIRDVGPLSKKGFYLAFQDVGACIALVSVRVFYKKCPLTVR

The record followed here is patent publication US20190077860A1.

These are yes or no findings as the source states them, for the method shown. Some entries that bind do so weakly or less than the wild type.

B1: antibody A-Fab (Fab, V domains shown, not shown: a dimerising Fc or GST)
VH: QIQLVQSGPELKKPGETVKISCKASGYTFTDYSMHWVKQAPGKGLKWMGWINTETGEPTYADDFKGRFAFSLETSASTAYLQINNLKNEDTATYFCARIPLYYYGSRYWYFDVWGAGTTVTVSS
VL: DIQMTQSPASLSVSVGETVTITCRASENIYRNLAWYQQKQGKSPQLLVYAATNLADGVPSRFSGSGSGTQYSLKINSLQSEDFGSYYCQHFWGTPWTFGGGTKLEIKR
On to B1, for which the binding entry in assay [1] was “binds”.

B2: humanized antibody No. 156 (antibody, human IgG2)
heavy: QIQLVQSGSELKKPGASVKVSCKASGYTFTDYSMHWVRQAPGQGLKWMGWINTETGEPTYAQGFTGRFVFSLDTSVSTAYLQISSLKAEDTAVYYCARIPLYYYGSRYWYFDVWGQGTTVTVSSASTKGPSVFPLAPSSRSTSESTAALGCLVKDYFPEPVTVSWNSGALTSGVHTFPAVLQSSGLYSLSSVVTVPSSNFGTQTYTCNVDHKPSNTKVDKTVERKSCVECPPCPAPPAAAPSVFLFPPKPKDTLMISRTPEVTCVVVDVSHEDPEVQFNWYVDGVEVHNAKTKPREEQFNSTFRVVSVLTVVHQDWLNGKEYKCKVSNKGLPAPIEKTISKTKGQPREPQVYTLPPSREEMTKNQVSLTCLVKGFYPSDIAVEWESNGQPENNYKTTPPMLDSDGSFFLYSKLTVDKSRWQQGNVFSCSVMHEALHNHYTQKSLSLSPG
light: DIQMTQSPSSLSASVGDRVTITCRASENIYRNLAWYQQKPGKAPQLLLYAATNLADGVPSRFSGSGSGTDYTLTISSLQPEDFATYYCQHFWGTPWTFGQGTKVEIKRTVAAPSVFIFPPSDEQLKSGTASVVCLLNNFYPREAKVQWKVDNALQSGNSQESVTEQDSKDSTYSLSSTLTLSKADYEKHKVYACEVTHQGLSSPVTKSFNRGEC
Take B2: the binding result in assay [2] and in assay [3] was “binds” throughout.

B3: humanized antibody No. 136 (antibody, human IgG2)
heavy: QVQLVQSGSELKKPGASVKVSCKASGYTFTDYSMHWVRQAPGQGLKWMGWINTETGEPTYADDFKGRFVFSLDTSVSTAYLQISSLKAEDTAVYYCARIPLYYYGSRYWYFDVWGQGTTVTVSSASTKGPSVFPLAPSSRSTSESTAALGCLVKDYFPEPVTVSWNSGALTSGVHTFPAVLQSSGLYSLSSVVTVPSSNFGTQTYTCNVDHKPSNTKVDKTVERKSCVECPPCPAPPAAAPSVFLFPPKPKDTLMISRTPEVTCVVVDVSHEDPEVQFNWYVDGVEVHNAKTKPREEQFNSTFRVVSVLTVVHQDWLNGKEYKCKVSNKGLPAPIEKTISKTKGQPREPQVYTLPPSREEMTKNQVSLTCLVKGFYPSDIAVEWESNGQPENNYKTTPPMLDSDGSFFLYSKLTVDKSRWQQGNVFSCSVMHEALHNHYTQKSLSLSPG
light: EIVMTQSPATLSVSPGERATLSCRASENIYRNLAWYQQKPGQSPRLLIYAATNLADGIPARFSGSGSGTEYTLTISSLQSEDFAVYYCQHFWGTPWTFGQGTKVEIKRTVAAPSVFIFPPSDEQLKSGTASVVCLLNNFYPREAKVQWKVDNALQSGNSQESVTEQDSKDSTYSLSSTLTLSKADYEKHKVYACEVTHQGLSSPVTKSFNRGEC
Take B3: the binding result in assay [2] and in assay [3] was “binds” each time.
